Test system: nuclear p27 in LNCaP-S14 cells
Type: cell-based, human

With Cc1cc(C=Cc2ccc3cc(N(C)C)ccc3[n+]2C)c(C)n1-c1ccccc1.O=C([O-])c1cc2ccccc2c(Cc2c(O)c(C(=O)O)cc3ccccc23)c1O [501K03] the Clasf was “S (key: S: strong (Z score > 5); M: medium (Z score 3-5); W: weak (Z score 2-3)” and the “Z score (aver)” value was 14.00.
